Results published in US4929601A, “Tripeptides useful as immunostimulants as well as in the prevention of metastases” (Ellem Industria Farmaceutica, S.p.A., priority 1987, dated 1990).
Not every detail of the peptide structures is certain; ends, links or a residue may be inferred. Peptide text beside a SMILES is read from it.

Assays:
[1] = system: pure human T lymphocytes, without macrophages; experiment: Lymphokine production by pure human T lymphocytes without macrophages (+IL-1): BCGF activity; assay type: cell-based
Excerpt: (§1) The supernatants have been collected, filtered (0.2 μm) and assayed for the presence of IL-2 or BCGF activity, by adding them at different concentrations to fresh T lymphocytes or to long term cultured B cells. The proliferating activity of these cells, dependent on the presence of the respective growth factor, has been evaluated through 3H-thymidine incorporation.
(§2) The lymphokine production by human T lymphocytes purified through […] on nylon wool column has been evaluated with the same methods as in the previous experiment.
(§3) In order to obviate the lack of macrophages, recombinant IL-1 β (Genzyme) has been added at the concentration of 25 Units/ml.

[2] = system: pure human T lymphocytes, without macrophages; experiment: Lymphokine production by pure human T lymphocytes without macrophages (+IL-1): TCGF activity; assay type: cell-based
Excerpt: as §1, §2, §3

[3] = 1 mcg/ml, 3.125% of supernatant
[4] = 10 mcg/ml, 3.125% of supernatant
[5] = 10 mcg/ml, 6.25% of supernatant
[6] = 10 mcg/ml, 12.5% of supernatant

## C[C@H](NC(=O)[C@@H](N)CCCNC(=N)N)C(=O)N[C@@H](CCCNC(=N)N)C(=O)O [ARG--ALA--ARG, Arg-Ala-Arg] (H-Arg-Ala-Arg-OH)
[1]; [3]
  BCGF activity Δ %: +56%
[1]; 1 mcg/ml, 3.125% of supernatant, T + PHA + IL-1 318
  BCGF ACTIVITY c.p.m.: 496 c.p.m.
[1]; 1 mcg/ml, 6.25% of supernatant
  BCGF activity Δ %: -11%
[1]; 1 mcg/ml, 6.25% of supernatant, T + PHA + IL-1 582
  BCGF ACTIVITY c.p.m.: 516 c.p.m.
[1]; 1 mcg/ml, 12.5% of supernatant
  BCGF activity Δ %: +113%
[1]; 1 mcg/ml, 12.5% of supernatant, T + PHA + IL-1 1104
  BCGF ACTIVITY c.p.m.: 2347 c.p.m.
[1]; 1 mcg/ml, 25% of supernatant
  BCGF activity Δ %: +59%
[1]; 1 mcg/ml, 25% of supernatant, T + PHA + IL-1 2507
  BCGF ACTIVITY c.p.m.: 3987 c.p.m.
[1]; 1 mcg/ml, 50% of supernatant
  BCGF activity Δ %: +41%
[1]; 1 mcg/ml, 50% of supernatant, T + PHA + IL-1 5056
  BCGF ACTIVITY c.p.m.: 7143 c.p.m.
[1]; [4]
  BCGF activity Δ %: -2%
[1]; 10 mcg/ml, 3.125% of supernatant, T + PHA + IL-1 318
  BCGF ACTIVITY c.p.m.: 312 c.p.m.
[1]; [5]
  BCGF activity Δ %: -27%
[1]; 10 mcg/ml, 6.25% of supernatant, T + PHA + IL-1 582
  BCGF ACTIVITY c.p.m.: 425 c.p.m.
[1]; [6]
  BCGF activity Δ %: +133%
[1]; 10 mcg/ml, 12.5% of supernatant, T + PHA + IL-1 1104
  BCGF ACTIVITY c.p.m.: 2569 c.p.m.
[1]; 10 mcg/ml, 25% of supernatant
  BCGF activity Δ %: +77%
[1]; 10 mcg/ml, 25% of supernatant, T + PHA + IL-1 2507
  BCGF ACTIVITY c.p.m.: 4437 c.p.m.
[1]; 10 mcg/ml, 50% of supernatant
  BCGF activity Δ %: +82%
[1]; 10 mcg/ml, 50% of supernatant, T + PHA + IL-1 5056
  BCGF ACTIVITY c.p.m.: 9185 c.p.m.
[2]; [3]
  TCGF activity Δ %: +23%
[2]; 1 mcg/ml, 3.125% of supernatant, T + PHA + IL-1 1696
  TCGF ACTIVITY c.p.m.: 2085 c.p.m.
[2]; 1 mcg/ml, 6.25% of supernatant
  TCGF activity Δ %: +102%
[2]; 1 mcg/ml, 6.25% of supernatant, T + PHA + IL-1 2817
  TCGF ACTIVITY c.p.m.: 5679 c.p.m.
[2]; 1 mcg/ml, 12.5% of supernatant
  TCGF activity Δ %: +220%
[2]; 1 mcg/ml, 12.5% of supernatant, T + PHA + IL-1 3663
  TCGF ACTIVITY c.p.m.: 11728 c.p.m.
[2]; 1 mcg/ml, 25% of supernatant
  TCGF activity Δ %: +164%
[2]; 1 mcg/ml, 25% of supernatant, T + PHA + IL-1 4812
  TCGF ACTIVITY c.p.m.: 12692 c.p.m.
[2]; 1 mcg/ml, 50% of supernatant
  TCGF activity Δ %: +81%
[2]; 1 mcg/ml, 50% of supernatant, T + PHA + IL-1 6297
  TCGF ACTIVITY c.p.m.: 11378 c.p.m.
[2]; [4]
  TCGF activity Δ %: +85%
[2]; 10 mcg/ml, 3.125% of supernatant, T + PHA + IL-1 1696
  TCGF ACTIVITY c.p.m.: 3142 c.p.m.
[2]; [5]
  TCGF activity Δ %: +129%
[2]; 10 mcg/ml, 6.25% of supernatant, T + PHA + IL-1 2817
  TCGF ACTIVITY c.p.m.: 6447 c.p.m.
[2]; [6]
  TCGF activity Δ %: +272%
[2]; 10 mcg/ml, 12.5% of supernatant, T + PHA + IL-1 3663
  TCGF ACTIVITY c.p.m.: 13629 c.p.m.
[2]; 10 mcg/ml, 25% of supernatant
  TCGF activity Δ %: +215%
[2]; 10 mcg/ml, 25% of supernatant, T + PHA + IL-1 4812
  TCGF ACTIVITY c.p.m.: 15143 c.p.m.
[2]; 10 mcg/ml, 50% of supernatant
  TCGF activity Δ %: +73%
[2]; 10 mcg/ml, 50% of supernatant, T + PHA + IL-1 6297
  TCGF ACTIVITY c.p.m.: 10875 c.p.m.
